Binding screen against folded nucleic acids

Data from the ROBIN nucleic acid binder screens, doi:10.1002/anie.202211358.

Targets (5′ to 3′):
SAM-II: SAM-II riboswitch RNA pseudoknot, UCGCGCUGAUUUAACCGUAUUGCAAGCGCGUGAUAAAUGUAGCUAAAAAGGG. About 21,000 compounds screened, about 200 hits.
TPP: TPP riboswitch RNA three-way junction, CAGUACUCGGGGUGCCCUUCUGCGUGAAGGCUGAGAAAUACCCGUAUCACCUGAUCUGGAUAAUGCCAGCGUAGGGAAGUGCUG. About 24,000 compounds screened, about 160 hits.
PreQ1: PreQ1 riboswitch RNA pseudoknot, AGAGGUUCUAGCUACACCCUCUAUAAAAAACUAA. From B. subtilis. About 24,000 compounds screened, about 170 hits.

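Each compound is printed as two spots on a slide made to bind it covalently, so it has no test concentration; the read-out is fluorescence of the bound, labelled oligonucleotide. The data file lists only calls. An earlier report of the laboratory on the PreQ1, TPP and SAM-II riboswitches (doi:10.1038/s41467-019-09493-3) used 1 µM RNA for 2 h and required a mean Z-score above 3 (spot signal-to-noise against the whole library), a score well above that on a control array, and duplicate spots agreeing (coefficient of variation under 100); it then also set aside compounds that hit other targets, which this list keeps. The cut-offs behind this list may differ. A missing hit is not proof of no binding, and a hit is not a measured affinity.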 “active” means called a hit, “inactive” means screened and not called a hit. The compounds are a random part of those screened. A dash means that no call is listed here.

structure | SAM-II | TPP | PreQ1
O=C(Cc1c[nH]c2ccccc12)N1C[C@H]2CN(CCO)C[C@@]2(C(=O)O)C1 | inactive | inactive | inactive
Cc1ccc(OC2(C(=O)NCc3ccc4c(c3)OCO4)CCNCC2)cc1 | inactive | inactive | inactive
N#CC1=C(N)N(c2ccc(Cl)cc2)C(=O)C1 | inactive | inactive | inactive
Cc1ccc2nc(C(=O)O)cc(Nc3ccc(F)c(Cl)c3)c2c1 | inactive | inactive | inactive
C#CC(C)(C)NC1(c2nnnn2-c2c(C)cccc2C)CCCC1 | inactive | inactive | inactive
CCCCNc1oc(-c2ccc(S(=O)(=O)N3CCCCC3)cc2)nc1C#N | - | inactive | inactive
CO[C@H]1C[C@@H](O)C12CCN(CCCOc1ccc(C(N)=O)cc1)CC2 | inactive | inactive | inactive
O=c1[nH]cc(Cc2nc(COc3ccccc3Cl)nn2CCO)c(=O)[nH]1 | inactive | inactive | inactive
CCNC(=O)[C@@H]1C[C@H](N)CN1C(=O)CN1CCCCCCC1 | inactive | inactive | inactive
CC(C)N(C[C@H]1O[C@@H](n2cnc3c(N)ncnc32)[C@H](O)[C@@H]1O)[C@H]1C[C@@H](CCc2nc3cc(C(C)(C)C)ccc3[nH]2)C1 | inactive | inactive | inactive
COC(=O)c1ccc(-c2nc3cnccn3c2Nc2ccc(C)cc2Br)cc1 | - | inactive | inactive
CCCCc1nc2cc(C=CC(=O)NO)ccc2n1CCN(CC)CC | inactive | inactive | inactive
COc1ccc(-c2cn3c(-c4ccccc4)c(-c4ccccc4)nc3n2CCCO)cc1 | inactive | inactive | inactive
CCn1nc(C)c(NC(=O)CNC(C)Cn2nc(C)cc2C)c1C (stereo not given) | inactive | inactive | inactive
OC1(CN2CCC(CCn3cccn3)CC2)CCNC1 (stereo not given) | inactive | inactive | inactive
Cc1ccc2nc(CN3CCC(c4nnc(CO)n4C)CC3)cc(O)c2c1 | inactive | inactive | inactive
NCCn1cc(C(=O)N2C[C@@H]3[C@@H]4CC[C@@H](C4)[C@@H]3C2)nn1 | inactive | inactive | inactive
CN(CCNCCC(=O)Nc1cccc(Cl)c1)S(C)(=O)=O | inactive | inactive | inactive
NC[C@H]1O[C@H](O[C@H]2[C@@H](O)[C@@H](O[C@H]3O[C@H](CO)[C@@H](O)[C@H](N)[C@@H]3O)[C@H](N)C[C@@H]2N)[C@H](N)C[C@H]1O | inactive | inactive | inactive
Cc1cc(O)c(-c2cc(O)c(C)cc2O)cc1O | inactive | inactive | inactive
Cc1cccc2[nH]c(C3CCCN(C(=O)Cc4ccc(CO)cc4)C3)nc12 (stereo not given) | inactive | inactive | inactive
N#Cc1nc(-c2ccc(S(=O)(=O)N3CCOCC3)cc2)oc1NC1CCCCC1 | - | inactive | inactive
OCc1nc2ccccc2n1CCCCOc1ccccc1 | - | inactive | inactive
NCCn1cc(C(=O)NCc2coc(-c3ccccc3)n2)nn1 | inactive | inactive | inactive
CC1CCN(c2nc(N)c(C(=O)NC(C)C)s2)CC1 | inactive | inactive | inactive
CC(O)CNc1nc2c(c(=O)n(C)c(=O)n2C)n1Cc1ccc(Cl)cc1 (stereo not given) | inactive | inactive | inactive
C[C@@H](O)[C@H](N)C(=O)N1CCc2c(nc(-c3ccccc3)[nH]c2=O)C1 | inactive | inactive | inactive
O=C(NCc1nnc2n1CCCC2)[C@H]1CNC[C@H](C(=O)N2CCOCC2)C1 | inactive | inactive | inactive
Cc1c(S(=O)(=O)c2ccccc2)c(N)n(C(C)C)c1C | inactive | inactive | inactive
Nc1ccc(S(=O)(=O)Nc2ccnn2-c2ccccc2)cc1 | inactive | inactive | inactive
O=C(CCC(=O)c1cccc2ccccc12)N[C@@H]1CCNC[C@H]1O | inactive | inactive | inactive
CN1C(=O)NC(c2ccc(O)cc2)C2=C1CN(CCO)C2=O (stereo not given) | inactive | inactive | inactive
COc1ccc(Cl)cc1Nc1nc(SC)nc2c1CCC2 | - | inactive | inactive
CCC1(CO)CCCN(c2cccc(C#N)n2)C1 (stereo not given) | inactive | inactive | inactive
COCC(Nc1nc(C2CCCC2)nc2c1CNC2)c1ccnn1C (stereo not given) | inactive | inactive | inactive
Cc1cccc(C2C(C#N)=C(N)OC3=C2S(=O)(=O)N(Cc2ccccc2C)c2ccccc23)c1 (stereo not given) | - | inactive | inactive
CCc1ccc(-n2nc(CO)c(C(=O)NCCc3ccccc3)n2)cc1 | - | inactive | inactive
CCC(CO)N(Cc1ccsc1)C(=O)c1ccc(C(=O)OC)cn1 (stereo not given) | inactive | inactive | inactive

Repeated from the top, 3 entries:

structure,SAM-II,TPP,PreQ1
O=C(Cc1c[nH]c2ccccc12)N1C[C@H]2CN(CCO)C[C@@]2(C(=O)O)C1,inactive,inactive,inactive
Cc1ccc(OC2(C(=O)NCc3ccc4c(c3)OCO4)CCNCC2)cc1,inactive,inactive,inactive
N#CC1=C(N)N(c2ccc(Cl)cc2)C(=O)C1,inactive,inactive,inactive